# Reference: patent US20250041252A1, “POWDERS FOR INHALATION AND PRODUCTION PROCESS THEREOF” (UNIVERSITA' DEGLI STUDI DI PARMA, priority 2021, published 2025)
# Conditions: PBS pH 7.4, 37° C.
structure (smiles),measurement,setting,value
"CCN(CC)CC(=O)Nc1c(C)cccc1C [Lidocaine powder raw material, lidocaine]",time to complete dissolution,about 8 mg lidocaine,15 min
same,Dissolved lidocaine,"about 8 mg of LANE, end of test",7.9 ± 0.4 mg
